The source of these data is PubChem BioAssay AID493014 (National Center for Advancing Translational Sciences (NCATS), 2011).

Values joined by “and” are separate entries in the source; they are usually repeats but may differ in a detail not shown here. Identical values can stand only once. Some of the results follow. Further columns of the screen follow, without active or inactive calls. Most of these compounds were active or inconclusive in the main read-out, so they are no random draw. Potencies come from curve fits of mixed quality, noted in brackets.

The assay in a line: qHTS Assay to Find Inhibitors of Chronic Active B-Cell Receptor Signaling. Conditions: ABC-DLBCL IkBa-CBG/CBR reporter, luminescence ratio (green luciferase fused to IkBa over red control in TMD8 lymphoma cells), 4 h. The method in brief: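 Doxycycline induced both beetle luciferases in TMD8 lymphoma cells; IKK-driven degradation limits the IkappaBalpha-fused green signal, while red luminescence normalises for cell number and nonspecific effects. Compounds tested up to 46 uM, 4 hrs.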
On the technique in general: Quantitative high-throughput screening tests each substance at several concentrations.

Where [1] appears, read: measured here: CBR red luminescence, cell number.
[2] abbreviates: measured here: IkBa-CBG green luminescence.

In general, AC50 refers to the midpoint of the concentration-response curve, whichever way the signal moves. For `O=C(Nc1nnc(SCc2ccccc2)s1)c1cc2c(s1)CCCC2`, the AC50 under setting [1] is 2.06 µM [rising, full curve, poor fit].

With `N#C/C(=C\c1cn(Cc2ccc(F)cc2)c2ccccc12)C(=O)NCc1ccco1`, the concentration at half-maximal activity (AC50) runs as follows: under setting [1], 6.51 µM [rising, single point]; under setting [2], 6.51 µM [falling, partial curve, poor fit].

As for `CCOc1ccc(C(C)(C)C)cc1S(=O)(=O)N1CC(C)OC(C)C1` (stereo not given), under setting [1], the AC50 was 0.00461 µM [rising, full curve, poor fit].

In the case of `Cc1cc(C)n(-c2nc3ccccc3nc2N2CCC(C)CC2)n1`, the AC50 under setting [1] was 23.1 µM [rising, partial curve, poor fit].

Turning to `CSc1nnc(C)c(=O)n1COC(=O)/C=C/c1ccc2c(c1)OCO2`, the half-maximal activity concentration (AC50) under setting [1] was 3.16 µM [falling, single point].

With `CCCCCn1c(=O)c(-c2nc3ccccc3[nH]2)c(O)c2ccccc21`, the concentration at half-maximal activity (AC50) under setting [1] is 3.55 µM [rising, partial curve, poor fit].

On to `COc1ccc(C)cc1-n1nnnc1SCc1nc2ccccc2c(=O)[nH]1`, for which, under setting [1], the AC50 was 6.31 µM [rising, single point].

As to `COC(=O)C1=C(C)NC(C)=C(C(=O)OC)C1C(=O)OC(C)C(=O)c1ccccc1` (stereo not given), the half-maximal activity concentration (AC50) under setting [1] is 20 µM [rising, partial curve, poor fit] and 10.3 µM [rising, partial curve, poor fit].

Consider `COc1cccc(/C=C2\SC(=S)N(CCC(=O)Nc3ccc(O)cc3)C2=O)c1`, for which the half-maximal activity concentration (AC50) under setting [1] was 10 µM [falling, partial curve].

Turning to `Oc1cccc2cnccc12`, under setting [1], the AC50 is 0.355 µM [falling, full curve, poor fit].

For `COc1ccccc1Nc1nnc(SCc2nnc(-c3cc(OC)c(OC)c(OC)c3)o2)s1`, the AC50 under setting [1] was 1.84 µM [rising, partial curve, poor fit].

For the molecule `COc1ccc(NC(=O)CN(C)S(=O)(=O)c2ccc(Cl)cc2)cc1Cl`, the concentration at half-maximal activity (AC50) under setting [1] is 0.562 µM [falling, partial curve, poor fit].

For `Cc1ccc(C(=O)N2CC(=O)Nc3ccc(C)cc3C2c2ccccc2)cc1` (stereo not given), the AC50 under setting [1] is 35.5 µM [falling, single point].

As for `CCOC(=O)c1ccc(-c2ccc3c(c2)CCC3)nc1C`, the AC50 under setting [1] is 12.6 µM [rising, partial curve, poor fit].

Take `O=C(NC1=NCCS1)c1ccc(Br)s1`: the AC50 under setting [1] is 0.82 µM [rising, partial curve, poor fit].

`Cc1ccc2nc(-c3ccc(SCC(=O)Nc4nnc(C)s4)nc3)[nH]c2c1`: the AC50 reads like this: under setting [1], 4.11 µM [falling, full curve, poor fit]; under setting [2], 23.1 µM [rising, partial curve, poor fit].

In the case of `C=CCn1cccc(C(=O)Nc2cc(OC)ccc2OC)c1=O`, the AC50 under setting [1] is 11.2 µM [falling, partial curve, poor fit].

On to `Cc1ccccc1C(=O)NNS(=O)(=O)c1cccc([N+](=O)[O-])c1`, for which, under setting [1], the concentration at half-maximal activity (AC50) is 15.8 µM [falling, partial curve, poor fit].

For `Cc1cccc(Nc2ncnc3onc(-c4ccc(F)cc4)c23)c1C`, the concentration at half-maximal activity (AC50) under setting [1] is 35.5 µM [rising, single point].

As for `S=C(NCCc1c[nH]c2ccccc12)NC1CCCC1`, under setting [1], the half-maximal activity concentration (AC50) is 35.5 µM [falling, single point].

As for `CC(C)CC(N=Cc1c(O)c2ccccc2oc1=O)C(=O)O` (stereo not given), under setting [1], the concentration at half-maximal activity (AC50) is 3.55 µM [falling, full curve].

In the case of `O=C1c2ccccc2N2C(=O)c3ccccc3C2N1O` (stereo not given), the AC50 under setting [1] was 11.2 µM [falling, partial curve, poor fit].

On to `CCCCN(C(=O)Cc1coc2cc(C)c(C)cc12)c1c(N)n(Cc2ccccc2)c(=O)[nH]c1=O`, for which, under setting [1], the AC50 is 0.58 µM [rising, full curve].

Take `O=S(=O)(c1ccc(Br)cc1)N1CCN(c2ccc3nnc(-c4ccccc4)n3n2)CC1`: the AC50 under setting [1] is 29.1 µM [rising, single point].

As to `Cc1cc(C(=O)NC(=S)Nc2cccc(NC(=O)C(C)C)c2)ccc1[N+](=O)[O-]`, the AC50 under setting [1] is 1.46 µM [rising, full curve, poor fit].

For the molecule `C=CCSc1nc2c(c(C3CC=CCC3)c1C#N)CCC2` (stereo not given), the AC50 under setting [1] was 16.4 µM [rising, partial curve].

For `CC(C)n1cc(C(=O)N2CCCC(N3CCN(c4cccc(Cl)c4)CC3)C2)cn1` (stereo not given), under setting [1], the concentration at half-maximal activity (AC50) was 3.16 µM [falling, partial curve, poor fit].

Regarding `C/C(=C\c1ccccc1)CN1CCN(Cc2ccc(C)o2)C(CCO)C1` (stereo not given), the AC50 under setting [1] is 35.5 µM [rising, single point].

As to `O=C(C1CCCN(c2ncnc3c2nc2n3CCCCC2)C1)N1CCN(c2ccccc2F)CC1` (stereo not given), the half-maximal activity concentration (AC50) under setting [1] is 35.5 µM [falling, single point].

In the case of `O=C(CN1CCOCC1)Nc1ccccc1C(=O)Nc1ccccc1`, under setting [1], the AC50 is 25.1 µM [rising, single point].

On to `COc1ccccc1C(=O)NCC(=O)NC1CCCc2ccccc21` (stereo not given), for which, under setting [1], the AC50 is 10 µM [falling, partial curve, poor fit].

As to `CN(c1ccc(C(=O)N2CCN(Cc3ccc4c(c3)OCO4)CC2)cc1)S(=O)(=O)c1ccccc1`, the AC50 under setting [1] is 29.1 µM [falling, single point].

With `CCC(CO)Nc1nc2ccc(Cl)cc2c2ccccc12` (stereo not given), the half-maximal activity concentration (AC50) under setting [1] is 25.1 µM [falling, single point].

As for `O=C(Cn1cnc([N+](=O)[O-])c1)Nc1ccc(F)c(Cl)c1`, the half-maximal activity concentration (AC50) under setting [1] was 2 µM [falling, full curve].

With `COC(=O)c1ccc(NC(=O)c2cccc(C)c2)cc1`, under setting [1], the AC50 was 15.8 µM [falling, partial curve, poor fit].

As for `O=[N+]([O-])c1cc(F)c(N2CCCCC2)cc1N1CCOCC1`, the AC50 under setting [1] is 12.6 µM [rising, partial curve, poor fit].

In the case of `COc1cc(C(F)(F)F)ccc1C(=O)NCCc1ccco1`, the concentration at half-maximal activity (AC50) under setting [1] is 7.08 µM [rising, full curve, poor fit].

With `CC(C)c1nc(N2CCN(C(=O)c3ccco3)CC2)c(C#N)c2c1COC(C)(C)C2`, the AC50 under setting [1] is 2.82 µM [falling, full curve, poor fit].

Turning to `CCOc1ccc(Oc2c(/C=N/NC(=O)COc3ccccc3OC)c(C)nn2-c2ccccc2)cc1`, under setting [1], the AC50 was 0.92 µM [rising, partial curve].

Turning to `Cc1cc(/C=N/n2cnnc2)c(O)c([N+](=O)[O-])c1`, the AC50 under setting [1] is 29.1 µM [rising, single point].

Turning to `O=C(Nc1cccc(NC(=O)c2cccs2)c1)c1ccc2c(c1)OCO2`, the AC50 under setting [1] is 6.31 µM [falling, partial curve, poor fit].

For the molecule `CCCCNC(=O)C(C#N)c1nc2ccccc2nc1N1CCCC1` (stereo not given), under setting [1], the AC50 was 6.51 µM [falling, partial curve, poor fit].

For the molecule `CS(=O)(=O)c1ccc2nc(NC(=O)CCC(=O)c3cccs3)sc2c1`, the AC50 under setting [1] is 6.51 µM [rising, partial curve, poor fit].

For the molecule `CC1(C)Cc2ccccc2C(N/N=C/c2ccc(Cl)cc2)=N1`, under setting [1], the AC50 was 0.461 µM [rising, full curve, poor fit].

With `COc1ccc(NC(=O)CSc2nnc(-c3ccco3)n2N)cc1Cl`, the half-maximal activity concentration (AC50) under setting [1] was 0.631 µM [falling, full curve, poor fit].

`COc1cc2nc(COc3ccc(C#N)cc3)n(CC#N)c(=O)c2cc1OC`: the half-maximal activity concentration (AC50) under setting [1] was 15.8 µM [falling, partial curve, poor fit].

As for `Cc1ccc2nc(-c3ccccc3)c(NC(=O)c3ccco3)n2c1`, under setting [1], the concentration at half-maximal activity (AC50) was 9.2 µM [falling, partial curve].

For `CC(=O)Nc1ccc(C(=O)OCC(=O)Nc2ccccc2F)cc1`, the half-maximal activity concentration (AC50) under setting [1] is 35.5 µM [falling, single point].

As to `CCCC(=O)Nc1nc2ccc(OC)cc2s1`, the concentration at half-maximal activity (AC50) under setting [1] is 1.03 µM [falling, full curve, poor fit].

Take `CCN(CC)S(=O)(=O)c1ccc(N2CCOCC2)c(NC(=O)COc2ccc(OC)cc2)c1`: under setting [1], the half-maximal activity concentration (AC50) is 25.9 µM [rising, single point].

For the molecule `CCc1nnc(NC(=O)Cc2ccc(Br)cc2)s1`, the half-maximal activity concentration (AC50) under setting [1] was 3.16 µM [rising, partial curve, poor fit].

In the case of `CC1CCC/C(=C\Nc2ccc(C(=O)O)cc2)C1=O` (stereo not given), under setting [1], the concentration at half-maximal activity (AC50) is 0.398 µM [falling, full curve, poor fit].

Turning to `O=[N+]([O-])c1ccc(O)c(C=Nc2ccc3oc(Cc4ccc(Cl)cc4)nc3c2)c1`, the AC50 under setting [1] is 1.78 µM [falling, full curve, poor fit].

Take `COc1ccccc1-n1cnnc1SCC(=O)c1ccc[nH]1`: the AC50 under setting [1] is 4.11 µM [falling, single point] and the AC50 under setting [2] is 6.51 µM [rising, partial curve, poor fit].

As for `Cc1cc(Cl)n2nc(C)c(-c3ccc(Cl)cc3)c2n1`, the AC50 under setting [1] is 12.6 µM [falling, partial curve, poor fit].

As to `COc1cccc(CN(C(=O)COc2ccc(C)cc2)C2CCS(=O)(=O)C2)c1` (stereo not given), under setting [1], the AC50 was 10 µM [falling, partial curve, poor fit].

Regarding `COc1ccc(CCNc2nc(-c3ccc(F)cc3)c(CC(=O)O)s2)cc1OC`, the AC50 under setting [1] was 11.2 µM [falling, partial curve, poor fit].

Turning to `COc1ccc(F)cc1C(=O)C1CCCN(Cc2cn(C)c3ccccc23)C1` (stereo not given), under setting [1], the AC50 is 28.2 µM [falling, single point].

Take `COC(=O)c1cccc(COC(=O)CNC(=O)c2ccco2)c1`: the concentration at half-maximal activity (AC50) under setting [1] was 12.6 µM [rising, partial curve, poor fit].

With `CCCOc1ccc(N2C(=O)CC(N(Cc3ccc(S(N)(=O)=O)cc3)C(=O)CC)C2=O)cc1` (stereo not given), under setting [1], the AC50 was 1.16 µM [falling, full curve, poor fit].

As for `COc1ccc(NC(=O)c2ccc(Cl)nc2)cc1S(=O)(=O)N1CCCCC1`, the concentration at half-maximal activity (AC50) is, setting by setting: under setting [1], 12.6 µM [falling, partial curve]; under setting [2], 8.91 µM [rising, partial curve, poor fit].
